PubChem BioAssay AID1259297 – Sanger Institute – 2017

Test: 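Kinases whose loss kills cells on their own or with targeted drugs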 (primary screen)
Cells: human RCM1 colorectal cancer cell line
Reagent: siRNA pool against human genes
Conditions: separate arms: DMSO vehicle, or one anchor drug at a mild dose: BYL719 1 µM, cetuximab 5 µg/ml, trametinib 10 nM
Read-out: 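Replicate-mean well viability as a share of non-targeting pool control, a robust z-score without drug, and synergy scores for BYL719, cetuximab and trametinib arms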
Direction: viability z-score, knock-down alone: higher = more viable cells than non-targeting controls
Hit rule: 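Essential when the viability robust z-score for knock-down alone is below -3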
Calls: active = essential when knocked down alone; inactive = no clear loss of viability alone
This is an unselected part of 794 reagents tested. Of all reagents, 13 (1.6%) got an active call. 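Calls reflect knock-down without drug only; drug synergy is judged separately, with scores above 0.15 counted as synergy.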 Entries without a mark were called inactive. Not all columns of the deposit are shown. The record does not give: the amount of reagent, the time to read-out.

| gene symbol | viability z-score, knock-down alone |
| --- | --- |
| GK | 0.705 |
| PRKAR2A | -0.715 |
| SGK2 | -0.432 |
| ADCK2 | -0.0132 |
| ACVR1C | 0.9 |
| EPHA5 | 0.9 |
| GNE | 0.071 |
| HASPIN | -0.196 |
| BRD2 | 0.9 |
| ULK3 | 0.89 |
| AMER1 | 0.114 |
| MATK | 0.713 |
| DAPK2 | -0.276 |
| MAP3K10 | 0.9 |
| FGFR3 | -2.32 |
| BMPR2 | -0.0744 |
| SIK2 | 0.857 |
| AGK | 0.879 |
| TNK2 | 0.9 |
| ACVRL1 | 0.9 |
| PIK3CB | 0.148 |
| CAMK2N1 | -3.15 (active) |
| CDK6 | 0.0794 |
| MAPK1 | -0.246 |
| NME4 | -1.32 |
| PRKCB | -1.34 |
| LRRK1 | 0.9 |
| ITPKC | -0.382 |

Continued, starting with the last 5 of the part before.
| gene symbol | viability z-score, knock-down alone |
| --- | --- |
| MAPK1 | -0.246 |
| NME4 | -1.32 |
| PRKCB | -1.34 |
| LRRK1 | 0.9 |
| ITPKC | -0.382 |
| ADCK5 | -0.574 |
| STK17B | 0.864 |
| MAPK15 | 0.9 |
| MAP3K4 | 0.9 |
| TBCK | 0.9 |
| MAP4K5 | -0.55 |
| PIK3C2G | -1.69 |
| CDK4 | 0.9 |
| STK38 | -1.42 |
| AURKB | -0.367 |
| PFKM | 0.9 |
| CDK1 | 0.9 |
| CEP290 | 0.151 |
| MAP3K19 | -2.2 |
| COQ8B | 0.253 |
| DYRK1A | 0.513 |
| MAP3K3 | 0.0774 |
| EPHA10 | 0.168 |
| NRBP1 | 0.737 |
| RPS6KA3 | 0.27 |
| MAP2K6 | 0.686 |
| ROS1 | 0.899 |
